This assay has as its target chitinase Cts1 (Ustilago maydis). Briefly: two-hybrid; Clontech MatchMaker III system in S. cerevisiae AH109; Gal4 AD and BD fusions, both combinations; serial dilutions on selection plates; auto-activation excluded with control plasmids.

Sequences of proteins named here, by UniProt entry; tags and fusion partners are left off. A change or cut given only in a name is not applied to a line headed by its entry.
UniProt A0A0D1C3B2: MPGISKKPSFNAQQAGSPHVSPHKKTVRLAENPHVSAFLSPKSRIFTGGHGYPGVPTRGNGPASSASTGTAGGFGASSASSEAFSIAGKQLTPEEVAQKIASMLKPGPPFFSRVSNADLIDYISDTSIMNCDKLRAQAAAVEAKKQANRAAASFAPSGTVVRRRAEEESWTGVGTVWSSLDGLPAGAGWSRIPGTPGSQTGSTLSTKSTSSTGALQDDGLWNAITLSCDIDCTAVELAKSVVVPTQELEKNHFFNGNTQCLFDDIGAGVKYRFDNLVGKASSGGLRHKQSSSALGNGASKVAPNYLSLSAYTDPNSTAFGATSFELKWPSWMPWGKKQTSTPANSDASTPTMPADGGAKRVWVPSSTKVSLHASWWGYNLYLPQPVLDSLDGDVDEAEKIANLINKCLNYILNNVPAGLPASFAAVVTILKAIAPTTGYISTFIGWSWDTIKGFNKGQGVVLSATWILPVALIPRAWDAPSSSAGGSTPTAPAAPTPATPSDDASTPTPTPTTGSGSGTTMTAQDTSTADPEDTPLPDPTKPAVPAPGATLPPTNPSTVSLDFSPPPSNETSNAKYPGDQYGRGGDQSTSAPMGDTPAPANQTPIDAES

No constants are given. Whether binding was seen depends on the method and setting. A result given as binding can be weak or reduced; the word gives no strength.

With “Jps1 (jammed in protein secretion screen 1) (from UniProt A0A0D1C3B2)”, the binding result was “binds weakly”.

The record behind these values is article PMC7358432.
